Among all 390,000 compounds or so, about 4,000 (1%) were called active. The inconclusive results got no clear call from the source; some entries with a clear call stand among them for comparison. Calls come from the whole dose curve; as a rule, active = well fitted inhibition curve with a large enough effect; inconclusive = small, poorly fitted or top-dose-only effect, or another doubt; inactive = no such curve, though single readings can be large or run the other way. Where the call is inconclusive, the potency comes from a doubtful curve fit.
The compounds below were run against DNA polymerase iota (Homo sapiens) (UniProt Q9UNA4) (assay: qHTS for Inhibitors of Polymerase Iota). Conditions: Pol iota fluorescent replication assay, 10 min; series mostly up to 115 µM.
How it was run: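 Pol iota at 10 nM preincubated 15 min with compounds at room temperature; reaction started with fluorescent substrate, 50 nM final. Fluorescence read kinetically at 0 and 10 min; buffer-only wells as negative control.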
Potency is the fitted concentration of half-maximal effect.

Protein sequences, listed by entry. Tags and fused reporters are not part of them. Lines headed by an entry give the natural chain unless they say otherwise; changes in a name come on top.
UniProt Q9UNA4: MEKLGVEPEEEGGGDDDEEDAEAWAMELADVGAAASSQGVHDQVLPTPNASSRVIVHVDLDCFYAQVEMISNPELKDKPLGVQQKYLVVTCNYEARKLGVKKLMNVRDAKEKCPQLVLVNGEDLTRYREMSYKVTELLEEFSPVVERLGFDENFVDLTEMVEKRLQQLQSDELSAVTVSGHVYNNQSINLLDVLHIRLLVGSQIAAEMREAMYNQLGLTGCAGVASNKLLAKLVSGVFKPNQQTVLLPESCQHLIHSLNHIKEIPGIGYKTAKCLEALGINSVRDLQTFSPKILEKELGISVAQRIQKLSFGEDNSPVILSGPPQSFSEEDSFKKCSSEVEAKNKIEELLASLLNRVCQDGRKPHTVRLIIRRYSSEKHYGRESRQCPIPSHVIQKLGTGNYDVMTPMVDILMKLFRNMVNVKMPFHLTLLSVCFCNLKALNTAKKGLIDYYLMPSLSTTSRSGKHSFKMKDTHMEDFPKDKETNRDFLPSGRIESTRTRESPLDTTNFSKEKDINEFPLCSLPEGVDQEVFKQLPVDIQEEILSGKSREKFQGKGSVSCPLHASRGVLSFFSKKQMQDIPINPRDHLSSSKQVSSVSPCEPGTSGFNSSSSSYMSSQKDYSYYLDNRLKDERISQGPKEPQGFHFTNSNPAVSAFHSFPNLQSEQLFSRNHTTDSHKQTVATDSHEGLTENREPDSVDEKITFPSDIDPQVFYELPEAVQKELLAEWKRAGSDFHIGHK

Structure (SMILES) | Potency
Cn1cc(C(c2ccccc2OCC(=O)O)c2cn(C)c3ccccc23)c2ccccc21 | inactive
CCOC(=O)N1CCC(NS(=O)(=O)c2cc3c(cc2C)NC(=O)CO3)CC1 | inconclusive: 28.2 µM [inhibitor, partial curve, poor fit]
COc1ccc(C2CC(c3cccs3)=NN2c2nc(-c3ccccc3)cs2)cc1OC (stereo not drawn) | inconclusive: 11.2 µM [inhibitor, full curve, poor fit]
CCc1cccc(CC)c1N(COC)C(=O)Cn1c(C(C)O)nc2ccccc21 (stereo not drawn) | inconclusive: 100 µM [inhibitor, single point]
CC(=O)N1c2ccc(S(=O)(=O)N3CCCC3)cc2CC1C(=O)NCc1ccccc1F (stereo not drawn) | inconclusive: 70.8 µM [inhibitor, single point]
COC(=O)c1nc(NC(=S)NC(=O)c2cccs2)sc1C | inconclusive: 31.6 µM [inhibitor, single point]
CCS(=O)(=O)N1CCc2cc(C(=O)N3CCN(c4cccc(C(F)(F)F)c4)CC3)ccc21 | inactive
CCOc1ccc(-n2c(Cc3ccccc3)nnc2SCc2nc(-c3ccccc3C)no2)cc1 | inconclusive: 56.2 µM [inhibitor, partial curve, poor fit]
O=C(NCc1ccccn1)C(=O)Nc1cc2c3c(c1)CC(=O)N3CCC2 | inconclusive: 56.2 µM [inhibitor, partial curve, poor fit]
O=C(CCCN1C(=O)/C(=C/c2cccs2)SC1=S)NNC(=O)c1cccnc1 | inconclusive: 56.2 µM [inhibitor, partial curve, poor fit]
CCOC(=O)NC(Nc1sc2c(c1C(N)=O)CCCC2)(C(=O)OCC)C(F)(F)F (stereo not drawn) | inconclusive: 25.1 µM [inhibitor, single point]
NC(=S)c1c(Cl)cc(C(F)(F)F)cc1Cl | inactive
CCOC(=O)Nc1ccc2c(CN3CCN(S(=O)(=O)c4ccccc4)CC3)cc(=O)oc2c1 | inconclusive: 79.4 µM [inhibitor, partial curve, poor fit]
CC(C)OCCCn1c(SCc2cccc(Br)c2)nc2c(sc3ccccc32)c1=O | inactive
CCc1nc2sc3ccccc3c(=O)c2c(=O)n1Cc1ccco1 | active: 15.8 µM
Cc1[nH]nc2c1C(c1cnn(C)c1)C(C#N)=C(N)O2 (stereo not drawn) | inconclusive: 17.8 µM [inhibitor, partial curve, poor fit]
COc1cc(/C=C/C(=O)c2ccc(NS(=O)(=O)c3ccc(C)cc3)cc2)cc(OC)c1O | inconclusive: 20 µM [inhibitor, full curve, poor fit]
O=C(O)CCN1C(=O)C2CCCCC2C1=O (stereo not drawn) | inactive
Cc1ccc(S(=O)(=O)N2[C@@H](c3ccc(C(C)(C)C)cc3)C(C(=O)O)=CC[C@H]2c2ccc(C(C)C)cc2)cc1 | inconclusive: 56.2 µM [inhibitor, partial curve, poor fit]
O=C(Nc1nnc(SCc2c(Cl)cccc2Cl)s1)C1CC(=O)N(c2ccc3c(c2)OCCO3)C1 (stereo not drawn) | active: 15.8 µM

Structure (SMILES) | Potency
O=C(NNS(=O)(=O)c1cccc(Cl)c1)c1cc(-c2ccc(F)cc2)nc2ccccc12 | inconclusive: 39.8 µM [inhibitor, partial curve, poor fit]
CN(C)c1nc(N/N=C\c2ccc(Cl)c([N+](=O)[O-])c2)nc(Nc2ccc(F)cc2)n1 | inconclusive: 39.8 µM [inhibitor, partial curve]
CCOc1ccc(Br)cc1S(=O)(=O)Nc1cccc(S(=O)(=O)Nc2ccccc2C(=O)O)c1 | inconclusive: 2.24 µM [inhibitor, partial curve, poor fit]
Cc1ccc2c(c1)c(C)c(C)n2CC(O)CN1CCOCC1 (stereo not drawn) | inconclusive: 22.4 µM [inhibitor, partial curve, poor fit]
CCCCC(=O)c1c(O)c2ccccc2oc1=O | inconclusive: 1.58 µM [inhibitor, partial curve, poor fit]
CCSC(=O)N=Nc1ccc(O)cc1 | inconclusive: 31.6 µM [inhibitor, partial curve, poor fit]
COc1ccc(N(CCOc2ccccc2)S(=O)(=O)c2ccccc2)cc1 | inconclusive: 1.58 µM [inhibitor, full curve, poor fit]
CCc1nnc(NC(=O)c2cccc(S(=O)(=O)N3CCN(C(C)=O)CC3)c2)s1 | inconclusive: 50.1 µM [inhibitor, partial curve, poor fit]
O=C(CC1Sc2ccccc2NC1=O)Nc1cccc(-c2nnc3n2CCCCC3)c1 (stereo not drawn) | inconclusive: 20 µM [inhibitor, single point]
Cc1c(C(=O)/C=C/N(C)C)nnn1-c1ccc(Cl)c(Cl)c1 | inconclusive: 22.4 µM [inhibitor, full curve]
Cc1[nH][nH]c(=O)c1C(c1ccc(-c2ccc(F)cc2)o1)c1c(C)[nH][nH]c1=O | active: 7.08 µM
CC(=O)N1N=C(c2c(-c3ccccc3)c3cc(Br)ccc3[nH]c2=O)CC1c1ccco1 (stereo not drawn) | inconclusive: 22.4 µM [inhibitor, full curve, poor fit]
FC(F)(F)c1nc2ccccc2n1CCNc1nc(CN2CCCCC2)cs1 | inconclusive: 35.5 µM [inhibitor, single point]
COc1cc(OC)cc(C(=O)Nc2cc3nn(-c4ccccc4)nc3cc2Cl)c1 | inconclusive: 89.1 µM [inhibitor, partial curve, poor fit]
NC(N)=N/N=C/c1cccc(Cl)c1Cl | inactive
C[C@@H]1Cc2c(O)c(O)cc(O)c2C(=O)O1 | inconclusive: 56.2 µM [inhibitor, partial curve, poor fit]
CCOC(=O)c1c(NC(=O)c2nn(CC)cc2Br)c(C#N)cn1-c1ccccc1 | inconclusive: 89.1 µM [inhibitor, single point]
CCCc1cc(=O)[nH]c(SCC(=O)c2c(C)[nH]c3ccccc23)n1 | inconclusive: 100 µM [inhibitor, single point]
COc1ccc(C(=O)Cn2nnc(-c3ccccc3F)n2)cc1 | inconclusive: 56.2 µM [inhibitor, single point]
CCCS(=O)(=O)c1ncc(Cl)c(C(=O)N(Cc2ccccc2)Cc2ccco2)n1 | inconclusive: 31.6 µM [inhibitor, partial curve, poor fit]
O=C(Nc1ccc(Oc2ccc(C(F)(F)F)cn2)c(Cl)c1)C1CC1 | inconclusive: 89.1 µM [inhibitor, single point]

Structure (SMILES) | Potency
CCSC1=C(C#N)C2(CCCC2)C(C#N)=C(N)N1 | inactive
COc1ccc(S(=O)(=O)N(Cc2nc(-c3ccccc3)no2)C2CCCCC2)cc1 | inactive
C=CCc1ccc(OCCOCCN(C)C)c(OC)c1 | inconclusive: 22.4 µM [inhibitor, partial curve, poor fit]
COc1cc(C2CC(=O)N(c3ccc(C)c(Cl)c3)C3=C2C(=O)OC3)cc(OC)c1OC (stereo not drawn) | inconclusive: 89.1 µM [inhibitor, partial curve, poor fit]
O=S(=O)(NCC(c1ccco1)S(=O)(=O)c1ccccc1)c1cc(F)ccc1F (stereo not drawn) | inactive
O=C1CC(c2ccc(O)c(O)c2)Oc2c1ccc(O)c2O (stereo not drawn) | active: 1.58 µM
COC(=O)Nc1nnc(-c2ccco2)s1 | inconclusive: 25.1 µM [inhibitor, full curve, poor fit]
CC(=O)Oc1ccc2occ(/C=N/c3cc(=O)[nH]c(=S)[nH]3)c(=O)c2c1 | inconclusive: 12.6 µM [inhibitor, partial curve, poor fit]
CCN(CC)S(=O)(=O)c1ccc(Cl)c(NC(=O)COC(=O)c2ccc([N+](=O)[O-])o2)c1 | inconclusive: 39.8 µM [inhibitor, partial curve, poor fit]
CN(C)Cc1cc(O)c(CN(C)C)cc1O | active: 7.08 µM
Cc1noc(C)c1NC(=O)N(C)C[C@H]1Oc2c(cccc2N(C)C)C(=O)N([C@H](C)CO)C[C@@H]1C | inconclusive: 39.8 µM [inhibitor, single point]
CC(C)c1cnc2c(c1SCc1ccc([N+](=O)[O-])cc1)c(=O)n(C)c(=O)n2C | inactive
O=C(CSc1nnc(-c2ccc(Cl)cc2)n1Cc1ccco1)c1cccs1 | inconclusive: 39.8 µM [inhibitor, partial curve, poor fit]
O=C1OCCC1Sc1nc2ccccc2n1-c1ccccc1 (stereo not drawn) | inconclusive: 112 µM [inhibitor, single point]
O=C1C(=Cc2ccco2)C(=O)c2ccccc21 | inconclusive: 10 µM [inhibitor, full curve]
CCCOc1ccc(C2C(C(=O)c3cc4ccccc4o3)=C(O)C(=O)N2c2cc(C)on2)cc1 (stereo not drawn) | inactive
COc1ccc(CC(=O)Nc2ccccc2C(=O)N2CCCC2)cc1 | inactive
CC(=O)c1ccc2c(c1)C1C=CCC1C(C(=O)O)N2 (stereo not drawn) | active: 1.58 µM
O=C1c2ccccc2NC(c2ccc(O)c(O)c2)N1c1ccccc1Cl (stereo not drawn) | inconclusive: 79.4 µM [inhibitor, partial curve, poor fit]
CN1CCN(C(=O)c2cc(S(=O)(=O)Nc3ccccc3F)c(Cl)cc2Cl)CC1 | inconclusive: 56.2 µM [inhibitor, partial curve, poor fit]
O=C(COC(=O)C1CC2C=CC1C2)Nc1c(Br)cc([N+](=O)[O-])cc1Br (stereo not drawn) | inconclusive: 17.8 µM [inhibitor, partial curve, poor fit]

Three compounds from above, ordered by molecular weight, rising.
Structure (SMILES) | Potency
COc1cc(OC)cc(C(=O)Nc2cc3nn(-c4ccccc4)nc3cc2Cl)c1 | inconclusive: 89.1 µM [inhibitor, partial curve, poor fit]
COc1cc(/C=C/C(=O)c2ccc(NS(=O)(=O)c3ccc(C)cc3)cc2)cc(OC)c1O | inconclusive: 20 µM [inhibitor, full curve, poor fit]
Cc1ccc(S(=O)(=O)N2[C@@H](c3ccc(C(C)(C)C)cc3)C(C(=O)O)=CC[C@H]2c2ccc(C(C)C)cc2)cc1 | inconclusive: 56.2 µM [inhibitor, partial curve, poor fit]

From PubChem BioAssay AID588590 (National Center for Advancing Translational Sciences (NCATS), 2011)
